Results reported in patent publication US20150337013A1 (priority 2008, published 2015).

Experiment: general procedure: peptide synthesis; acid chloride; EDC/HOBT/DMAP
Conditions: lipidation step, TFA salt

Substance: N-{1-[(E)-3-(4-pentylphenyl)but-2-enoyl]}-L-tryptophyl-D-asparaginyl-L-α-aspartyl-L-threonylglycyl-L-ornithyl-L-α-aspartyl-D-alanyl-L-α-aspartylglycyl-D-seryl-(3R)-3-methyl-L-α-glutamyl-(αS)-α,2-diamino-γ-oxobenzenebutanoic acid (13→4)-lactone
- final HPLC purity: 87.0%
